# Assay results as given in paper PMC11898301.
# The chains behind the UniProt entries cited, without tags or fusion partners.
# UniProt Q969H0: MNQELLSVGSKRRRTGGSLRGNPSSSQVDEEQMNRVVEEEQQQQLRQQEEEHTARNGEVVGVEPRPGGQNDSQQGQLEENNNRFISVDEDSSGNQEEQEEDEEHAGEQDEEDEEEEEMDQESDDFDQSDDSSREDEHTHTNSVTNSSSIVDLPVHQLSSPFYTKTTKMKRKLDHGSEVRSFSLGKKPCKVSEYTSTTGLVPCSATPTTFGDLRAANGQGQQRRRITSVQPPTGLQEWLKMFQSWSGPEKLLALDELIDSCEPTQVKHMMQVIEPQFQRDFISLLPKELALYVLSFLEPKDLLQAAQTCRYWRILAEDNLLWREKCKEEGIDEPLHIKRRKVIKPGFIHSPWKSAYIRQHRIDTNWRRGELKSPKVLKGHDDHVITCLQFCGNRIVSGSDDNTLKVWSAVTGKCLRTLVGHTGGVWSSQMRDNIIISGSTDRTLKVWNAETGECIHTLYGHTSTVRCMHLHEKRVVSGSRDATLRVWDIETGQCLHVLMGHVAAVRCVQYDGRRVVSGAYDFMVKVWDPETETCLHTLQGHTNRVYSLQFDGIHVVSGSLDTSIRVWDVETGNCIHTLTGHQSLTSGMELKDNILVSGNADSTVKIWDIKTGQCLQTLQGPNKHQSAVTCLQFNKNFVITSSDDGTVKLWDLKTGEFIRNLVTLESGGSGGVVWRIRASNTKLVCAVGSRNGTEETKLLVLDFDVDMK
# UniProt Q92747: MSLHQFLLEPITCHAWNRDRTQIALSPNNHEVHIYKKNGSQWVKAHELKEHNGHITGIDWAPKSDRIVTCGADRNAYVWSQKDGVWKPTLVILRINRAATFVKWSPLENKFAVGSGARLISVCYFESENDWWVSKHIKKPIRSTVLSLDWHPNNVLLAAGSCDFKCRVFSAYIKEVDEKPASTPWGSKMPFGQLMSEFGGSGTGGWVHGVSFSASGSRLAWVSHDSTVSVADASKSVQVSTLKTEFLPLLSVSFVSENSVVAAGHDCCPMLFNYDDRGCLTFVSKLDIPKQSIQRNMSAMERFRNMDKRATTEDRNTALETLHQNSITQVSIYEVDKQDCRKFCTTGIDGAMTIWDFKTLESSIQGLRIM
# UniProt P49841: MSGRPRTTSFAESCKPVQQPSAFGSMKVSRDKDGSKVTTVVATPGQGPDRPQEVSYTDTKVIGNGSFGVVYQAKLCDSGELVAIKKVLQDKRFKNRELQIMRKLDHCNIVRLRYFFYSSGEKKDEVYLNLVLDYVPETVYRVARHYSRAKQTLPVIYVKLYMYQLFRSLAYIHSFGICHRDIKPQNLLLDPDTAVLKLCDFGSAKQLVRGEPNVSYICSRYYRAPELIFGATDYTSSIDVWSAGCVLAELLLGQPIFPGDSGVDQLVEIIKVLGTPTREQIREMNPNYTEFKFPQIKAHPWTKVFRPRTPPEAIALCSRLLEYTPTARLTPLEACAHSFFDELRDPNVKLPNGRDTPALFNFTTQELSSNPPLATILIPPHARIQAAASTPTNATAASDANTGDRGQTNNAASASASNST
# These are yes or no findings as the source states them, for the method shown. In cells and extracts the contact can be indirect. A yes stands for co-enrichment or nearness to the bait. Other partners may have been found. Tags and fused reporters may be left off the sequences shown.
# Molecular target: T1, HA-PRR11-WT (proline-rich 11) (human) (UniProt Q96HE9)
# T1 sequence: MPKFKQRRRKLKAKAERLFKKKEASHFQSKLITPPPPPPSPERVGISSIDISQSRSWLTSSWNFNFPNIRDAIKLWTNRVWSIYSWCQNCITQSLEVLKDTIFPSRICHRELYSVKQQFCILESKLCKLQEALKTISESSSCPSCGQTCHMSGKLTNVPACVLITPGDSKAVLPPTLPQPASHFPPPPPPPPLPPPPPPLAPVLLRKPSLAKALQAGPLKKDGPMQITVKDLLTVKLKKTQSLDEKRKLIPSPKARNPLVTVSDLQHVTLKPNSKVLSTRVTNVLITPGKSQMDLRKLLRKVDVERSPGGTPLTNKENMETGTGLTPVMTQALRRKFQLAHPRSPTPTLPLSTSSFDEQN
# Assay: affinity purification with mass spectrometry; HA-PRR11 (HA-Vector as control) transfected into 293T cells for 48 h; co-IP with HA antibody, SDS-PAGE, silver staining, timsTOF Pro mass spectrometry
row,binding,Substance
1,binds,endogenous FBXW7 (from UniProt Q969H0 1-707)
2,binds,ARPC1A (from UniProt Q92747 1-370)
3,binds,ARPC1B (from UniProt O15143 1-372)
4,binds,endogenous GSK3β (from UniProt P49841 1-420)
